Measurements as given in US11065203B2, “Liposomal compositions and uses of same” (Technion Research & Development Foundation Limited, priority 2009, dated 2021).

B1: P11177 (protein, UniProt P11177 1-359, looked up)
chain: MAAVSGLVRRPLREVSGLLKRRFHWTAPAALQVTVRDAINQGMDEELERDEKVFLLGEEVAQYDGAYKVSRGLWKKYGDKRIIDTPISEMGFAGIAVGAAMAGLRPICEFMTFNFSMQAIDQVINSAAKTYYMSGGLQPVPIVFRGPNGASAGVAAQHSQCFAAWYGHCPGLKVVSPWNSEDAKGLIKSAIRDNNPVVVLENELMYGVPFEFPPEAQSKDFLIPIGKAKIERQGTHITVVSHSRPVGHCLEAAAVLSKEGVECEVINMRTIRPMDMETIEASVMKTNHLVTVEGGWPQFGVGAEICARIMEGPAFNFLDAPAVRVTGADVPMPYAKILEDNSIPQVKDIIFAIKKTLNI
modifications: full-length
B2: O15460 (protein, UniProt O15460 1-535, looked up)
chain: MKLWVSALLMAWFGVLSCVQAEFFTSIGHMTDLIYAEKELVQSLKEYILVEEAKLSKIKSWANKMEALTSKSAADAEGYLAHPVNAYKLVKRLNTDWPALEDLVLQDSAAGFIANLSVQRQFFPTDEDEIGAAKALMRLQDTYRLDPGTISRGELPGTKYQAMLSVDDCFGMGRSAYNEGDYYHTVLWMEQVLKQLDAGEEATTTKSQVLDYLSYAVFQLGDLHRALELTRRLLSLDPSHERAGGNLRYFEQLLEEEREKTLTNQTEAELATPEGIYERPVDYLPERDVYESLCRGEGVKLTPRRQKRLFCRYHHGNRAPQLLIAPFKEEDEWDSPHIVRYYDVMSDEEIERIKEIAKPKLARATVRDPKTGVLTVASYRVSKSSWLEEDDDPVVARVNRRMQHITGLTVKTAELLQVANYGVGGQYEPHFDFSRNDERDTFKHLGTGNRVATFLNYMSDVEAGGATVFPDLGAAIWPKKGTAVFWYNLLRSGEGDYRTRHAACPVLVGCKWVSNKWFHERGQEFLRPCGSTEVD
modifications: full-length
B3: Q9Y6C9 (protein, UniProt Q9Y6C9 1-303, looked up)
chain: MADAASQVLLGSGLTILSQPLMYVKVLIQVGYEPLPPTIGRNIFGRQVCQLPGLFSYAQHIASIDGRRGLFTGLTPRLCSGVLGTVVHGKVLQHYQESDKGEELGPGNVQKEVSSSFDHVIKETTREMIARSAATLITHPFHVITLRSMVQFIGRESKYCGLCDSIITIYREEGILGFFAGLVPRLLGDILSLWLCNSLAYLVNTYALDSGVSTMNEMKSYSQAVTGFFASMLTYPFVLVSNLMAVNNCGLAGGCPPYSPIYTSWIDCWCMLQKEGNMSRGNSLFFRKVPFGKTYCCDLKMLI
modifications: full-length
B4: Q9Y224 (protein, UniProt Q9Y224 1-244, looked up)
chain: MFRRKLTALDYHNPAGFNCKDETEFRNFIVWLEDQKIRHYKIEDRGNLRNIHSSDWPKFFEKYLRDVNCPFKIQDRQEAIDWLLGLAVRLEYGDNAEKYKDLVPDNSKTADNATKNAEPLINLDVNNPDFKAGVMALANLLQIQRHDDYLVMLKAIRILVQERLTQDAVAKANQTKEGLPVALDKHILGFDTGDAVLNEAAQILRLLHIEELRELQTKINEAIVAVQAIIADPKTDHRLGKVGR
modifications: full-length
B5: Q02978 (protein, UniProt Q02978 1-314, looked up)
chain: MAATASAGAGGIDGKPRTSPKSVKFLFGGLAGMGATVFVQPLDLVKNRMQLSGEGAKTREYKTSFHALTSILKAEGLRGIYTGLSAGLLRQATYTTTRLGIYTVLFERLTGADGTPPGFLLKAVIGMTAGATGAFVGTPAEVALIRMTADGRLPADQRRGYKNVFNALIRITREEGVLTLWRGCIPTMARAVVVNAAQLASYSQSKQFLLDSGYFSDNILCHFCASMISGLVTTAASMPVDIAKTRIQNMRMIDGKPEYKNGLDVLFKVVRYEGFFSLWKGFTPYYARLGPHTVLTFIFLEQMNKAYKRLFLSG
modifications: full-length
B6: Q6DD88 (protein, UniProt Q6DD88 1-541, looked up)
chain: MLSPQRVAAAASRGADDAMESSKPGPVQVVLVQKDQHSFELDEKALASILLQDHIRDLDVVVVSVAGAFRKGKSFILDFMLRYLYSQKESGHSNWLGDPEEPLTGFSWRGGSDPETTGIQIWSEVFTVEKPGGKKVAVVLMDTQGAFDSQSTVKDCATIFALSTMTSSVQIYNLSQNIQEDDLQQLQLFTEYGRLAMDEIFQKPFQTLMFLVRDWSFPYEYSYGLQGGMAFLDKRLQVKEHQHEEIQNVRNHIHSCFSDVTCFLLPHPGLQVATSPDFDGKLKDIAGEFKEQLQALIPYVLNPSKLMEKEINGSKVTCRGLLEYFKAYIKIYQGEDLPHPKSMLQATAEANNLAAAASAKDIYYNNMEEVCGGEKPYLSPDILEEKHCEFKQLALDHFKKTKKMGGKDFSFRYQQELEEEIKELYENFCKHNGSKNVFSTFRTPAVLFTGIVALYIASGLTGFIGLEVVAQLFNCMVGLLLIALLTWGYIRYSGQYRELGGAIDFGAAYVLEQASSHIGNSTQATVRDAVVGRPSMDKKAQ
modifications: full-length
B7: Q92841 (protein, UniProt Q92841 1-729, looked up)
chain: MPTGFVAPILCVLLPSPTREAATVASATGDSASERESAAPAAAPTAEAPPPSVVTRPEPQALPSPAIRAPLPDLYPFGTMRGGGFGDRDRDRDRGGFGARGGGGLPPKKFGNPGERLRKKKWDLSELPKFEKNFYVEHPEVARLTPYEVDELRRKKEITVRGGDVCPKPVFAFHHANFPQYVMDVLMDQHFTEPTPIQCQGFPLALSGRDMVGIAQTGSGKTLAYLLPAIVHINHQPYLERGDGPICLVLAPTRELAQQVQQVADDYGKCSRLKSTCIYGGAPKGPQIRDLERGVEICIATPGRLIDFLESGKTNLRRCTYLVLDEADRMLDMGFEPQIRKIVDQIRPDRQTLMWSATWPKEVRQLAEDFLRDYTQINVGNLELSANHNILQIVDVCMESEKDHKLIQLMEEIMAEKENKTIIFVETKRRCDDLTRRMRRDGWPAMCIHGDKSQPERDWVLNEFRSGKAPILIATDVASRGLDVEDVKFVINYDYPNSSEDYVHRIGRTARSTNKGTAYTFFTPGNLKQARELIKVLEEANQAINPKLMQLVDHRGGGGGGGGRSRYRTTSSANNPNLMYQDECDRRLRGVKDGGRRDSASYRDRSETDRAGYANGSGYGSPNSAFGAQAGQYTYGQGTYGAAAYGTSSYTAQEYGAGTYGASSTTSTGRSSQSSSQQFSGIGRSGQQPQPLMSQQFAQPPGATNMIGYMGQTAYQYPPPPPPPPPSRK
modifications: full-length
B8: O15260 (protein, UniProt O15260 1-269, looked up)
chain: MGQNDLMGTAEDFADQFLRVTKQYLPHVARLCLISTFLEDGIRMWFQWSEQRDYIDTTWNCGYLLASSFVFLNLLGQLTGCVLVLSRNFVQYACFGLFGIIALQTIAYSILWDLKFLMRNLALGGGLLLLLAESRSEGKSMFAGVPTMRESSPKQYMQLGGRVLLVLMFMTLLHFDASFFSIVQNIVGTALMILVAIGFKTKLAALTLVVWLFAINVYFNAFWTIPVYKPMHDFLKYDFFQTMSVIGGLLLVVALGPGGVSMDEKKKEW
modifications: full-length
B9: Q13724 (protein, UniProt Q13724 1-837, looked up)
chain: MARGERRRRAVPAEGVRTAERAARGGPGRRDGRGGGPRSTAGGVALAVVVLSLALGMSGRWVLAWYRARRAVTLHSAPPVLPADSSSPAVAPDLFWGTYRPHVYFGMKTRSPKPLLTGLMWAQQGTTPGTPKLRHTCEQGDGVGPYGWEFHDGLSFGRQHIQDGALRLTTEFVKRPGGQHGGDWSWRVTVEPQDSGTSALPLVSLFFYVVTDGKEVLLPEVGAKGQLKFISGHTSELGDFRFTLLPPTSPGDTAPKYGSYNVFWTSNPGLPLLTEMVKSRLNSWFQHRPPGAPPERYLGLPGSLKWEDRGPSGQGQGQFLIQQVTLKIPISIEFVFESGSAQAGGNQALPRLAGSLLTQALESHAEGFRERFEKTFQLKEKGLSSGEQVLGQAALSGLLGGIGYFYGQGLVLPDIGVEGSEQKVDPALFPPVPLFTAVPSRSFFPRGFLWDEGFHQLVVQRWDPSLTREALGHWLGLLNADGWIGREQILGDEARARVPPEFLVQRAVHANPPTLLLPVAHMLEVGDPDDLAFLRKALPRLHAWFSWLHQSQAGPLPLSYRWRGRDPALPTLLNPKTLPSGLDDYPRASHPSVTERHLDLRCWVALGARVLTRLAEHLGEAEVAAELGPLAASLEAAESLDELHWAPELGVFADFGNHTKAVQLKPRPPQGLVRVVGRPQPQLQYVDALGYVSLFPLLLRLLDPTSSRLGPLLDILADSRHLWSPFGLRSLAASSSFYGQRNSEHDPPYWRGAVWLNVNYLALGALHHYGHLEGPHQARAAKLHGELRANVVGNVWRQYQATGFLWEQYSDRDGRGMGCRPFHGWTSLVLLAMAEDY
modifications: full-length
B10: Q07021 (protein, UniProt Q07021 1-282, looked up)
chain: MLPLLRCVPRVLGSSVAGLRAAAPASPFRQLLQPAPRLCTRPFGLLSVRAGSERRPGLLRPRGPCACGCGCGSLHTDGDKAFVDFLSDEIKEERKIQKHKTLPKMSGGWELELNGTEAKLVRKVAGEKITVTFNINNSIPPTFDGEEEPSQGQKVEEQEPELTSTPNFVVEVIKNDDGKKALVLDCHYPEDEVGQEDEAESDIFSIREVSFQSTGESEWKDTNYTLNTDSLDWALYDHLMDFLADRGVDNTFADELVELSTALEHQEYITFLEDLKSFVKSQ
modifications: full-length
B11: Q53GQ0 (protein, UniProt Q53GQ0 1-312, looked up)
chain: MESALPAAGFLYWVGAGTVAYLALRISYSLFTALRVWGVGNEAGVGPGLGEWAVVTGSTDGIGKSYAEELAKHGMKVVLISRSKDKLDQVSSEIKEKFKVETRTIAVDFASEDIYDKIKTGLAGLEIGILVNNVGMSYEYPEYFLDVPDLDNVIKKMININILSVCKMTQLVLPGMVERSKGAILNISSGSGMLPVPLLTIYSATKTFVDFFSQCLHEEYRSKGVFVQSVLPYFVATKLAKIRKPTLDKPSPETFVKSAIKTVGLQSRTNGYLIHALMGSIISNLPSWIYLKIVMNMNKSTRAHYLKKTKKN
modifications: full-length
B12: P08559 (protein, UniProt P08559 1-390, looked up)
chain: MRKMLAAVSRVLSGASQKPASRVLVASRNFANDATFEIKKCDLHRLEEGPPVTTVLTREDGLKYYRMMQTVRRMELKADQLYKQKIIRGFCHLCDGQEACCVGLEAGINPTDHLITAYRAHGFTFTRGLSVREILAELTGRKGGCAKGKGGSMHMYAKNFYGGNGIVGAQVPLGAGIALACKYNGKDEVCLTLYGDGAANQGQIFEAYNMAALWKLPCIFICENNRYGMGTSVERAAASTDYYKRGDFIPGLRVDGMDILCVREATRFAAAYCRSGKGPILMELQTYRYHGHSMSDPGVSYRTREEIQEVRSKSDPIMLLKDRMVNSNLASVEELKEIDVEVRKEIEDAAQFATADPEPPLEELGYHIYSSDPPFEVRGANQWIKFKSVS
modifications: full-length

Assay: Proteomics analysis (trypsin digest, LC-MS/MS) of hMSC ghosts and derived CDLs, conditioned or unconditioned by PC3 medium
Set-up: species or system human
Details: LC-MS/MS peak area per protein; for Ratio of expression Cond. CDLs/Cond. Ghosts: CDLs derived from conditioned hMSCs versus conditioned ghosts; for Ratio of expression Cond Ghosts/Ghosts: hMSC ghosts conditioned by PC3 medium versus unconditioned ghosts

| Molecule | Ratio of expression Cond. CDLs/Cond. Ghosts | Ratio of expression Cond Ghosts/Ghosts |
| --- | --- | --- |
| B1 | 4% | 82% |
| B2 | 1% | 100% |
| B3 | 1% | 100% |
| B4 | 2% | 100% |
| B5 | 3% | 193% |
| B6 | 1% | 100% |
| B7 | 2% | 100% |
| B8 | 0% | 100% |
| B9 | 1% | 100% |
| B10 | 1% | 100% |
| B11 | 1% | 100% |
| B12 | 0% | 100% |
